## Library screen at single concentrations

From ChEMBL document CHEMBL3988442, “University of Dundee, Small-Polar-MMV Screening Library” (2021).

T. brucei: 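Whole-parasite assay of Trypanosoma brucei over 72 hours; the read-out is not stated. Compounds at 30 µM. Higher reads as stronger inhibition (inferred: compounds with an IC50 in retests scored well above the rest). Values scatter widely below zero; nearly all retest evidence comes from the higher of the two concentrations used. Size under these conditions: about 64,000 compounds, about 940 of them at 50% or above in at least one test.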
Toxoplasma: 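Assay of Toxoplasma gondii numbers, read through their beta-galactosidase reporter with a colour substrate. Tested at 10 µM. The record gives no direction; the compounds picked for IC50 retests had high values, so higher reads as fewer parasites. Size under these conditions: about 67,000 compounds, about 260 of them at 50% or above in at least one test.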

Results are given as percent effect.
How 0% and 100% were set is not recorded. Most values in the screen are low, and negative values occur.
This is an unselected part of the compounds tested.

- CC(=O)c1cc(CC(=O)NCc2ccc(F)cc2)cs1 | T. brucei: 2.615%; Toxoplasma: 4.732%
- CC(NC(=O)NCc1ccc(Cl)s1)c1ccccn1 (stereo unspecified) | T. brucei: 5.897%; Toxoplasma: 3.543%
- Cc1ccc(NC2CCN(C(=O)c3c(C)nn(C)c3Cl)CC2)nn1 | Toxoplasma: -25.43%
- CC(C)c1nnc(CN2CCCc3ccc(S(N)(=O)=O)cc32)o1 | T. brucei: -45.3%; Toxoplasma: 6.885%
- Cc1cnn(C2CCCN(C(=O)Cc3ccc(-n4cccn4)cc3)C2)c1 (stereo unspecified) | T. brucei: -8.107%; Toxoplasma: 4.132%
- Cn1nc2c(cc1=O)CN(CCOc1ccccc1C#N)CC2 | T. brucei: -7.298%; Toxoplasma: -27.31%
- COC(=O)CCC(=O)N1CCC2(CN(Cc3ccc(Cl)cc3)C2)C1 | T. brucei: -30.65%; Toxoplasma: 12.92%
- O=C(Cc1ccccn1)N1CCC(c2noc(-c3ccncc3)n2)CC1 | T. brucei: -16.83%; Toxoplasma: 9%
- O=C(O)C(F)(F)F.[H][C@@]12CCN(c3cccnc3)C[C@]1([H])CN(C(=O)c1ccsc1)C2 | T. brucei: -16.66%; Toxoplasma: -4.364%
- COc1cccc(OCC(=O)N2CCOc3ccncc32)c1 | T. brucei: -42.29%; Toxoplasma: 2.247%
- CC(NC(=O)N(C)Cc1ccsc1)c1ccc2c(c1)NC(=O)CO2 (stereo unspecified) | T. brucei: 6.088%; Toxoplasma: -16.94%
- O=C(Cc1ccccc1)NCCNS(=O)(=O)C1CCCCC1 | T. brucei: -1.709%; Toxoplasma: -13.46%
- COc1ccc2c(c1)OC1(CCN(Cc3cccc(C)c3)CC1)CC2=O | T. brucei: -0.9536%; Toxoplasma: 4.383%
- Cc1ccc(CN2Cc3nnn(C)c3C(COCCN(C)C)C2)s1.O=C(O)C(F)(F)F.O=C(O)C(F)(F)F (stereo unspecified) | T. brucei: -33.77%; Toxoplasma: 1.329%
- CC(C)N(C)CC(=O)N(C)C(c1cccc(F)c1)c1ccccn1 (stereo unspecified) | Toxoplasma: 19.23%
- CNC(=O)CN1CCN(C(=O)c2ccn(C)c(=O)c2)CC1 | T. brucei: -9.934%; Toxoplasma: -49.62%
- CC(C)c1noc(CCNC(=O)NCC2COc3ccccc3O2)n1 (stereo unspecified) | T. brucei: -35.89%; Toxoplasma: -1.996%
- Cn1cc(CN2CCc3ncnc(N4CCOCC4)c3CC2)cn1.O=C(O)C(F)(F)F.O=C(O)C(F)(F)F.O=C(O)C(F)(F)F | T. brucei: -40.66%; Toxoplasma: -4.094%
- Cc1ccc(F)c(NCC(C)(C)S(C)(=O)=O)c1 | T. brucei: -17.3%; Toxoplasma: 10.58%
- Cc1nn(C)cc1S(=O)(=O)N[C@@H]1CCC[C@@H](n2ccnc2)[C@@H]1O | T. brucei: -8.956%; Toxoplasma: 14.15%
- CCn1c(CN(C)C)nnc1C1CCN(c2nccc(NC)n2)CC1 | T. brucei: -24.35%; Toxoplasma: -12.44%
- Cc1nc2c(c(N3CCCC(CO)C3)n1)CCN(Cc1ccco1)CC2 (stereo unspecified) | T. brucei: -78.3%; Toxoplasma: 4.28%
- CNCC(=O)N1CCCC1c1nc(C(C)C)no1 (stereo unspecified) | T. brucei: -36.72%; Toxoplasma: 2.174%
- CC(=O)N1CCN(C(=O)CN2CCc3c(ncn3C3CC3)C2)CC1 | T. brucei: -16.36%; Toxoplasma: -77.22%
- CCC(C)NC(=O)N1CCCn2cnc(CO)c2C1 (stereo unspecified) | T. brucei: -15.4%; Toxoplasma: 12.48%

Once more, the final 2:

- CC(=O)N1CCN(C(=O)CN2CCc3c(ncn3C3CC3)C2)CC1 : T. brucei: -16.36%; Toxoplasma: -77.22%
- CCC(C)NC(=O)N1CCCn2cnc(CO)c2C1 (stereo unspecified) : T. brucei: -15.4%; Toxoplasma: 12.48%